This note sets out measurements from article PMC12059159.

No constants are given. Whether binding was seen depends on the method and setting. Binding seen in cells or lysates may run through a third protein. Some results given as binding are weak or reduced against the parent protein; the word gives no strength. For some of these results: Where a sequence is shown, tags or fusion partners need not be part of it.

One assay has as its target T1, TMED10-GFP (UniProt P49755).
T1 sequence: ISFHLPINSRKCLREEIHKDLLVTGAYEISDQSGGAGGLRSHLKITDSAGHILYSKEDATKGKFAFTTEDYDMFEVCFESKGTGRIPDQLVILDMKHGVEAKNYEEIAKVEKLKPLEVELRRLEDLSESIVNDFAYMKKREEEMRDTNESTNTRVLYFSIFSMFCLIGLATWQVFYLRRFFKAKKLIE
Kind of assay: co-IP; GFP-Trap: galectin-9-Myc co-expressed with TMED10-GFP in HeLa cells; lysates precipitated with GFP-Nanoab-Agarose beads for 1 h at 4 °C; blot with anti-Myc and anti-GFP.

A further assay deals with T2, ATG9A-GFP (UniProt Q7Z3C6).
T2 sequence: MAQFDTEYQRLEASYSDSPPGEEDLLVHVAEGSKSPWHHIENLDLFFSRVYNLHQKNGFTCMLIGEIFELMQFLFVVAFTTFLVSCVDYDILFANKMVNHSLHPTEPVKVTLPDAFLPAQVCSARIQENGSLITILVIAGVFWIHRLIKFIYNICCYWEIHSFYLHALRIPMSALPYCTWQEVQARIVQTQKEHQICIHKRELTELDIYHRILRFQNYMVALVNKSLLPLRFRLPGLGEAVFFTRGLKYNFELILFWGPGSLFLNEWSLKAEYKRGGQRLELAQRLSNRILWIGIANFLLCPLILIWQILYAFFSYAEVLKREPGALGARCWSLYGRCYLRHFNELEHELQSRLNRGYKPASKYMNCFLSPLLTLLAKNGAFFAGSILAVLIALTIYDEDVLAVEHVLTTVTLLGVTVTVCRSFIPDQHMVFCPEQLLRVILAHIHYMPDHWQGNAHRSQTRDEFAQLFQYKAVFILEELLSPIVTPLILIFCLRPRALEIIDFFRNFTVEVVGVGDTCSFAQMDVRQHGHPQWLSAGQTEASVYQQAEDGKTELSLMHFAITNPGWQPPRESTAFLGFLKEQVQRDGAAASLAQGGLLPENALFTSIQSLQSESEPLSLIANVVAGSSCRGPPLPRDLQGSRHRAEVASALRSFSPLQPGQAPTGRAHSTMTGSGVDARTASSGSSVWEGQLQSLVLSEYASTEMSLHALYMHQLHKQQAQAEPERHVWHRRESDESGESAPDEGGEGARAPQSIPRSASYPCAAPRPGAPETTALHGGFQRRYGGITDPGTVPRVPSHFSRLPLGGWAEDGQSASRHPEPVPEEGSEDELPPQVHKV
The experiment in a line: co-IP; galectin-9-Myc co-expressed with ATG9A-GFP or ATG9A (ΔN)-GFP in HeLa cells; lysates immunoprecipitated with an anti-GFP antibody and magnetic beads; blot with anti-Myc and anti-GFP; 50 mM Tris-HCl pH 7.4, 150 mM NaCl, 1 mM EDTA, 1% Triton X-100, 4 °C.

Assay [1] concerns the target T3, ATG9A (endogenous) (human (endogenous in HeLa)) (UniProt Q7Z3C6).
T3 sequence: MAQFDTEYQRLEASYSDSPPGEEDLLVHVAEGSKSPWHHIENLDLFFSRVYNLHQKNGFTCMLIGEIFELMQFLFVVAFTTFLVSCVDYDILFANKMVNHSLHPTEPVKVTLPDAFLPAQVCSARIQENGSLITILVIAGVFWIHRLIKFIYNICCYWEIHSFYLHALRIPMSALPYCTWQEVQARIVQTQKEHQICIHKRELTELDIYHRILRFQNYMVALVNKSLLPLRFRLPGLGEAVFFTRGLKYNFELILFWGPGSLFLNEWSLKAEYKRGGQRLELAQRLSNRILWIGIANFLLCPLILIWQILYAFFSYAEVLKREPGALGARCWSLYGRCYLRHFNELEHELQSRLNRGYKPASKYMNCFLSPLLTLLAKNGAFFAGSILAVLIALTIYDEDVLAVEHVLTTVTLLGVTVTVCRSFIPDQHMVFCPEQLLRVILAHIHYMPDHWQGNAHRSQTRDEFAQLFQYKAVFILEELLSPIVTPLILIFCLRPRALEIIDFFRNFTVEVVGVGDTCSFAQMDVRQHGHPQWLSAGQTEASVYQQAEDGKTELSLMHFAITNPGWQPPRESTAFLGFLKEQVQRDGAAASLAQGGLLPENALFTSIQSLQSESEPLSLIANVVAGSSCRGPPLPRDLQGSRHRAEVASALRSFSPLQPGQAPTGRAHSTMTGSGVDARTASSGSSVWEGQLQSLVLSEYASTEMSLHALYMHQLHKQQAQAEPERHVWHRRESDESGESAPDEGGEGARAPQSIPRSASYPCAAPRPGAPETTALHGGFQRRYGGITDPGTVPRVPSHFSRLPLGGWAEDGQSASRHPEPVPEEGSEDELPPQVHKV
Kind of assay: co-IP; endogenous ATG9A immunoprecipitated with an anti-ATG9A antibody and magnetic beads from lysates of HeLa cells expressing galectin-9-Myc; blot with anti-Myc and anti-ATG9A; normal conditions, 24-h DMEM starvation or PMA treatment; lysis in 50 mM Tris-HCl pH 7.4, 150 mM NaCl, 1 mM EDTA, 1% Triton X-100, 4 °C.

Another assay addresses GST-galectin-9 (human) (UniProt O00182). The experiment in a line: pull-down; purified GST or GST-galectin-9 on glutathione beads incubated with HeLa cell lysates at 4 °C, washed with 1x PBS; blot with anti-ATG9A and anti-GST; only the target purified.

For the molecule “galectin-9-Myc (from UniProt O00182 1-355)”, the binding entry (in the assay with TMED10-GFP; with ATG9A-GFP; in assay [1]) was “binds” throughout.

B1: ATG9A (endogenous) (protein, UniProt Q7Z3C6 1-839)
chain: MAQFDTEYQRLEASYSDSPPGEEDLLVHVAEGSKSPWHHIENLDLFFSRVYNLHQKNGFTCMLIGEIFELMQFLFVVAFTTFLVSCVDYDILFANKMVNHSLHPTEPVKVTLPDAFLPAQVCSARIQENGSLITILVIAGVFWIHRLIKFIYNICCYWEIHSFYLHALRIPMSALPYCTWQEVQARIVQTQKEHQICIHKRELTELDIYHRILRFQNYMVALVNKSLLPLRFRLPGLGEAVFFTRGLKYNFELILFWGPGSLFLNEWSLKAEYKRGGQRLELAQRLSNRILWIGIANFLLCPLILIWQILYAFFSYAEVLKREPGALGARCWSLYGRCYLRHFNELEHELQSRLNRGYKPASKYMNCFLSPLLTLLAKNGAFFAGSILAVLIALTIYDEDVLAVEHVLTTVTLLGVTVTVCRSFIPDQHMVFCPEQLLRVILAHIHYMPDHWQGNAHRSQTRDEFAQLFQYKAVFILEELLSPIVTPLILIFCLRPRALEIIDFFRNFTVEVVGVGDTCSFAQMDVRQHGHPQWLSAGQTEASVYQQAEDGKTELSLMHFAITNPGWQPPRESTAFLGFLKEQVQRDGAAASLAQGGLLPENALFTSIQSLQSESEPLSLIANVVAGSSCRGPPLPRDLQGSRHRAEVASALRSFSPLQPGQAPTGRAHSTMTGSGVDARTASSGSSVWEGQLQSLVLSEYASTEMSLHALYMHQLHKQQAQAEPERHVWHRRESDESGESAPDEGGEGARAPQSIPRSASYPCAAPRPGAPETTALHGGFQRRYGGITDPGTVPRVPSHFSRLPLGGWAEDGQSASRHPEPVPEEGSEDELPPQVHKV
As to B1, the binding entry with GST-galectin-9 (human) is reported as “binds”.
